The values that follow come from paper PMC3499479.

No constants are given. Whether binding was seen depends on the method and setting. Some entries that bind do so weakly or less than the wild type.

What all share (test): two-hybrid; FBX fused to Gal4-DB, ASK fused to Gal4-AD; yeast mating; selection on SD without Leu, Trp, His, Ade (high strength) or without Leu, Trp, His (low strength); every combination examined twice
The target in test [1] is T1, F-box (FBX) protein At3g22940 (Arabidopsis thaliana) (UniProt Q9LIK3).
T1 sequence: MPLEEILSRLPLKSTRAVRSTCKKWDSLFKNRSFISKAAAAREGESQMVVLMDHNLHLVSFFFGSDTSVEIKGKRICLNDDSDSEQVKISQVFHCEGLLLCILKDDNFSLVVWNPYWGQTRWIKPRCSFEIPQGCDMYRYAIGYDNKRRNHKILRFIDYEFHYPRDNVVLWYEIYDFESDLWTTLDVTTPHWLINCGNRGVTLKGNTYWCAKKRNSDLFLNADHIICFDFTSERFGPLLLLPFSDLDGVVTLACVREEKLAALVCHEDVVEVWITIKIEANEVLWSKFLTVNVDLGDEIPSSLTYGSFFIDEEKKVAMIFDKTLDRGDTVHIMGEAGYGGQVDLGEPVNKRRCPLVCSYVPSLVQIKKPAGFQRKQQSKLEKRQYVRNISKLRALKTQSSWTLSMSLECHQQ

Test [2] concerns the target T2, F-box (FBX) protein At2g20380 (Arabidopsis thaliana) (UniProt Q9SK64).
T2 sequence: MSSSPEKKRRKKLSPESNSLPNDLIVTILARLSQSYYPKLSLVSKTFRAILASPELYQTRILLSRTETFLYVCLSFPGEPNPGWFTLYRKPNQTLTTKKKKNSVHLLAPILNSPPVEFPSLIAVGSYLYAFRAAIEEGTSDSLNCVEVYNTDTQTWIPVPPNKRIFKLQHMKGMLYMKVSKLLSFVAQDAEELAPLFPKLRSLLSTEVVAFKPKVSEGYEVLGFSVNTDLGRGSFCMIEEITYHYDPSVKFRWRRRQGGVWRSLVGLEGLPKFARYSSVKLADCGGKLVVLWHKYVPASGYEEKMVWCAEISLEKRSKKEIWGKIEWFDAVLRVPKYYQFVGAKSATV

The target of test [3] is T3, F-box (FBX) protein At5g53840 (Arabidopsis thaliana) (UniProt Q9FGQ3).
T3 sequence: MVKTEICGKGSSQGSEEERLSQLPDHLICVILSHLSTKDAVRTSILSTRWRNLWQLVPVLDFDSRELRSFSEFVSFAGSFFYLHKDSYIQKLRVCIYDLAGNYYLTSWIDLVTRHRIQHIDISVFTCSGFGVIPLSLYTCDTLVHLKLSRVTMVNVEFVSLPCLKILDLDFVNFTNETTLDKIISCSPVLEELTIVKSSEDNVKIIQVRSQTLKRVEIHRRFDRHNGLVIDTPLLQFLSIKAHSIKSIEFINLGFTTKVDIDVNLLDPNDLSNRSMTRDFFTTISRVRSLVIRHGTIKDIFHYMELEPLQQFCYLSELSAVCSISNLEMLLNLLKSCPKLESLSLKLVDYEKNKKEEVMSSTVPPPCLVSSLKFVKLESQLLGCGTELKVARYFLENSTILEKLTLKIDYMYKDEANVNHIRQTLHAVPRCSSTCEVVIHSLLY

Test [4] addresses T4, F-box (FBX) protein At4g10400 (Arabidopsis thaliana) (UniProt Q9SV82).
T4 sequence: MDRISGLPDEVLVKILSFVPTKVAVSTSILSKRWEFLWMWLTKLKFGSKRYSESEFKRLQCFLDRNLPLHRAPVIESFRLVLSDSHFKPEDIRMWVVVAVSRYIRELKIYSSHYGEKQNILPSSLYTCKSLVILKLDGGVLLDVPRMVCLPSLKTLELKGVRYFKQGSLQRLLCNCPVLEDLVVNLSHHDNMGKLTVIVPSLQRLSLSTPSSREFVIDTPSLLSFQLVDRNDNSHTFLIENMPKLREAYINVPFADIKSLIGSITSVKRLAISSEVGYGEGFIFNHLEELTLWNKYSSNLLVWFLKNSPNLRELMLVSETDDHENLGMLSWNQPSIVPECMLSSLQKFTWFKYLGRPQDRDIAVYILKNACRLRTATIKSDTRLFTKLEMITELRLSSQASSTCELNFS

The target of test [5] is T5, F-box (FBX) protein At4g27050 (Arabidopsis thaliana) (UniProt Q9SZ44).
T5 sequence: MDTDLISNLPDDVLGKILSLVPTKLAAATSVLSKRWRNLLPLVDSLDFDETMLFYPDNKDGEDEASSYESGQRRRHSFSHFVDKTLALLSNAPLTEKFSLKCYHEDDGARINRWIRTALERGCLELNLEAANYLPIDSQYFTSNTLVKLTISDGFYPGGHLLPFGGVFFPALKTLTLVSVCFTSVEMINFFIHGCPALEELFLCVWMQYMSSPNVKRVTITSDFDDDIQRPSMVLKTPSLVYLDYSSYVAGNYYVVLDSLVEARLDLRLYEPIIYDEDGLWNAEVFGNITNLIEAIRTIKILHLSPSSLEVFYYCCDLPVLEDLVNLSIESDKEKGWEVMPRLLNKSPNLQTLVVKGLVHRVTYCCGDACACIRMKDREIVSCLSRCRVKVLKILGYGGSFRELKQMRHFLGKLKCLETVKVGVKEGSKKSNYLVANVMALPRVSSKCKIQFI

The target of test [6] is T6, F-box (FBX) protein At1g30790 (Arabidopsis thaliana) (UniProt Q9SY20).
T6 sequence: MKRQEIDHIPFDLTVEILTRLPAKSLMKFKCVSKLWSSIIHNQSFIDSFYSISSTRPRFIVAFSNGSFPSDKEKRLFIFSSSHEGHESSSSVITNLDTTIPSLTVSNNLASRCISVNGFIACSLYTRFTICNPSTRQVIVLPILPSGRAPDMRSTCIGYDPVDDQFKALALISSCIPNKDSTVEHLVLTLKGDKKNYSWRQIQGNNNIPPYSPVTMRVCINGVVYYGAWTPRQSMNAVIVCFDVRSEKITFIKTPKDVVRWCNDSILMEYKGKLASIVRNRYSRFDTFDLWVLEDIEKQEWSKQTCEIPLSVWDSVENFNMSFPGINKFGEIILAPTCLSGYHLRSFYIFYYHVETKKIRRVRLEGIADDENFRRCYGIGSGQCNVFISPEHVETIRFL

Test [7] deals with T7, F-box (FBX) protein At3g03360 (Arabidopsis thaliana) (UniProt Q84W80).
T7 sequence: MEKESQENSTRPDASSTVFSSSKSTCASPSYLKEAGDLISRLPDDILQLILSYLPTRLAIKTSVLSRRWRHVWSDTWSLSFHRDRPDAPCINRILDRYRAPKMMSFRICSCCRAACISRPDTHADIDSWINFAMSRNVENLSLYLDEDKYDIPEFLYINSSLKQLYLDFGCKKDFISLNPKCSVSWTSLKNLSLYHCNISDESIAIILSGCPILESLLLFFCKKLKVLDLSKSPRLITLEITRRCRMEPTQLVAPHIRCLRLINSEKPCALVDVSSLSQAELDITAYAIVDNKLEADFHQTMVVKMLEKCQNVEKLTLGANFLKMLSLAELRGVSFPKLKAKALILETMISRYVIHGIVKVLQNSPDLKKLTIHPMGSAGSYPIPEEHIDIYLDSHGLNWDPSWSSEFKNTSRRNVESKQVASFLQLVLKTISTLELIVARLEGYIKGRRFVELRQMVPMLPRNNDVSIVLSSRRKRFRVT

B1: Arabidopsis SKP1-LIKE 19 (ASK19) (protein, UniProt O81058 1-200)
chain: MSSKKIVLTSSDGESFKVEEVVARKLQIVGHIIEDDCATNKIPIPNVTGEILAKVIEYCKKHVEDDDDVVETHESSTKGDKTVEEAKKKPDDVAVPESTEGDDEAEDKKEKLNEWDAKFMKDFDIKTIFDIILAANYLNVQGLFDLCSKTIADYIKDMTPEEVRELFNIENDFTPEEEEAIRNENAWTFEQDGKQQVPKP
As to B1, the binding entry in test [1] was “binds”.

B2: Arabidopsis SKP1-LIKE 3 (ASK3) (protein, UniProt Q9SL93 1-163)
chain: MAETKKMIILKSSDGESFEVEEAVAVESQTIKHMIEDDCVDNGIPLPNVTGAILAKVIEYCKKHVEAAAEAGGDKDFYGSTENHELKTWDNDFVKVDHPTLFDLLRAANYLNISGLLDLTCKAVADQMRGKTPAQMREHFNIKNDYTPEEEAEVRNENRWAFE
On to B2, for which the binding entry in test [2], in test [3], in test [4] and in test [5] was “binds” throughout.

B3: Arabidopsis SKP1-LIKE 16 (ASK16) (protein, UniProt O81055 1-170)
chain: MSSNKIVLTSSDDESFEVEEAVARKLKVIAHMIDDDCADKAIPLENVTGNILALVIEYCKKHVLDDVDDSDDSTEATSENVNEEAKNELRTWDAEFMKEFDMETVMKLILAVNYLNVQDLLGLTCQTVADHMKDMSPEEVRELFNIENDYTPEEEDAIRKENAWAFEDLK
Regarding B3, the binding result in test [6] and in test [7] was “binds” in each case.
